Test results as given in PubChem BioAssay AID282 (DTP/NCI, 2004).
The list is a part of this screen's results and no random one: it gathers tests that were run many times, whatever their T/C, doses with no T/C, and many T/C values between a quarter and a half above the control. Other doses and runs of a compound stand elsewhere. T/C is the treated group as % of the vehicle group. Some entries give survivors of the animals treated and no T/C: the source files T/C as zero there, which appears to mark a toxic dose or a test without result, not a measured value. Some survivor counts are full or nearly so, which does not show that the dose was tolerated: the source hardly ever lists a survival T/C far under the control, and the zero likely stands for such cases as well. Counts of survivors are from the toxicity check (mostly the fifth day) where no day follows; animals may have died later. Schedules are NCI's codes, read here as Q, the interval in days (D) or hours (H), X, the number of doses. Some schedules carry Z or #; the key to these is not given. For survival time, the PubChem record calls one and a half times the control and up active, and a quarter to a half above the control has no call in these data; cut-offs in other NCI protocols can differ. Some T/C values carry the count of animals alive at the toxicity check (mostly the fifth day); without a count, all were alive then. Some entries hold several experiments; the results are listed from low to high.

Tested on: BDF1 mice, L1210 terephthalanilide-resistant leukemia ip, survival T/C
Assay: NCI In Vivo Anticancer Drug Screen. Data for tumor model L1210 Leukemia resistant to A Terephthalanilide; NSC 38280 (intraperitoneal) in B6D2F1 (BDF1) mice
Details: T/C endpoint: mean survival time, higher T/C = longer survival
Procedure: The antitumor activity of compounds was measured in mice bearing transplantable tumors. Survival or tumor size were measured and the results are expressed as the measurement made in the treated group (T) divided by the measurement made in the vehicle treated control group (C). The tumor model used in this assay is L1210 Leukemia resistant to A Terephthalanilide; NSC 38280 (intraperitoneal) in B6D2F1 (BDF1) mice

[1] = dose: 500.0 mg/kg/injection, schedule: Q01DX Z (ip), vehicle: carboxymethylcellulose (CMC)
[2] = dose: 200.0 mg/kg/injection, schedule: Q01DX010 (ip), vehicle: saline

S=c1nc[nH]c2nc[nH]c12
T/C (dose: 5.0 mg/kg/injection, schedule: Q01DX010 (ip), vehicle: alkali diluted with saline): 96, 98, 108, 120 % of control
T/C (dose: 5.0 mg/kg/injection, schedule: Q01DX Z (ip), vehicle: carboxymethylcellulose (CMC)): 138 % of control
T/C (dose: 10.0 mg/kg/injection, schedule: Q01DX010 (ip), vehicle: alkali diluted with saline): 103, 111, 115, 118 % of control
T/C (dose: 20.0 mg/kg/injection, schedule: Q01DX010 (ip), vehicle: alkali diluted with saline): 114, 115, 125, 126 % of control
T/C (dose: 40.0 mg/kg/injection, schedule: Q01DX010 (ip), vehicle: alkali diluted with saline): 134, 135, 136, 148 % of control
T/C (dose: 50.0 mg/kg/injection, schedule: Q01DX Z (ip), vehicle: carboxymethylcellulose (CMC)): 140 % of control
T/C (dose: 80.0 mg/kg/injection, schedule: Q01DX010 (ip), vehicle: alkali diluted with saline): 128, 131 [5 of 6 alive], 143, 161 % of control
survivor count (dose: 125.0 mg/kg/injection, schedule: Q01DX Z (ip), vehicle: carboxymethylcellulose (CMC)): 6 of 6
survivor count (dose: 250.0 mg/kg/injection, schedule: Q01DX Z (ip), vehicle: carboxymethylcellulose (CMC)): 3 of 6
survivor count [1]: 0 of 6

Cc1cc(N(CCCl)CCCl)ccc1N=Nc1ccccc1C(=O)O
T/C (dose: 4.0 mg/kg/injection, schedule: Q01DX Z (ip), vehicle: carboxymethylcellulose (CMC)): 131 % of control
T/C (dose: 6.25 mg/kg/injection, schedule: Q01DX Z (ip), vehicle: carboxymethylcellulose (CMC)): 141 % of control
T/C (dose: 12.5 mg/kg/injection, schedule: Q01DX Z (ip), vehicle: carboxymethylcellulose (CMC)): 128 and 138 % of control
T/C (dose: 25.0 mg/kg/injection, schedule: Q01DX Z (ip), vehicle: carboxymethylcellulose (CMC)): 129 % of control
survivor count (dose: 40.0 mg/kg/injection, schedule: Q01DX010 (ip), vehicle: saline): 6 of 6
survivor count (dose: 75.0 mg/kg/injection, schedule: Q01DX Z (ip), vehicle: carboxymethylcellulose (CMC)): 4 of 6
survivor count (dose: 100.0 mg/kg/injection, schedule: Q01DX Z (ip), vehicle: carboxymethylcellulose (CMC)): 0 of 6

COc1cc(-c2ccc(Nc3ccccc3C(=O)O)c(OC)c2)ccc1Nc1ccccc1C(=O)O
T/C (dose: 30.0 mg/kg/injection, schedule: Q01DX010 (ip), vehicle: saline): 131 % of control
T/C (dose: 45.0 mg/kg/injection, schedule: Q01DX010 (ip), vehicle: saline): 130 and 144 % of control
survivor count (dose: 150.0 mg/kg/injection, schedule: Q01DX010 (ip), vehicle: saline): 4 of 6

Clc1ncnc2nc[nH]c12
survivor count (dose: 300.0 mg/kg/injection, schedule: Q01DX Z (ip), vehicle: carboxymethylcellulose (CMC)): 3 of 6

O=CN(O)CC(=O)O
survivor count (dose: 62.5 mg/kg/injection, schedule: Q01DX010 (ip), vehicle: saline): 6 of 6

O=C(Nc1ccc(NC2=NCCN2)cc1)c1ccc(C(=O)Nc2ccc(NC3=NCCN3)cc2)cc1
T/C (dose: 4.0 mg/kg/injection, schedule: Q01DX010 (ip), vehicle: saline): 125 % of control

O=C1C(NC(=O)C2CCCCC2)=C(N2CC2)C(=O)C(NC(=O)C2CCCCC2)=C1N1CC1
T/C (dose: 62.0 mg/kg/injection, schedule: Q01DX Z (ip), vehicle: carboxymethylcellulose (CMC)): 127 % of control
survivor count (dose: 100.0 mg/kg/injection, schedule: Q01DX010 (ip), vehicle: saline): 6 of 6
survivor count [2]: 6 of 6
survivor count [1]: 3 of 6

NC12CC3CC(CC(C3)C1)C2
survivor count [2]: 1 of 6

O=C(Nc1ccc(NC(=O)Nc2cccc(C3=NCCN3)c2)cc1)Nc1cccc(C2=NCCN2)c1
T/C (dose: 480.0 mg/kg/injection, schedule: Q01DX Z (ip), vehicle: carboxymethylcellulose (CMC)): 127 % of control
